Reference: PMC13034042
These are yes or no findings as the source states them, for the method shown. In cells and extracts the contact can be indirect. Here binding means that the protein was enriched with, or labelled near, the bait; the list need not be complete.

Sequences of proteins named here, by UniProt entry; tags and fusion partners are left off.
UniProt P14126: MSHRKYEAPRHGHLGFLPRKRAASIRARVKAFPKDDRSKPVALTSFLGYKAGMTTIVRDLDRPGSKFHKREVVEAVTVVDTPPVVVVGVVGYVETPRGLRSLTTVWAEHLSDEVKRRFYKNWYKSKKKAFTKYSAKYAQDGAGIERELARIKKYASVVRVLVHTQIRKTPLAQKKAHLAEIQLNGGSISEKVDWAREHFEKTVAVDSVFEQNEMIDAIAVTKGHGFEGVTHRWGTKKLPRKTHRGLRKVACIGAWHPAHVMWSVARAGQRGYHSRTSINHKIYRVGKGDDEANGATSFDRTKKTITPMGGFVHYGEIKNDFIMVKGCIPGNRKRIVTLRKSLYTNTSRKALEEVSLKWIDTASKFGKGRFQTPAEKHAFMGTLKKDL
UniProt P0CX44: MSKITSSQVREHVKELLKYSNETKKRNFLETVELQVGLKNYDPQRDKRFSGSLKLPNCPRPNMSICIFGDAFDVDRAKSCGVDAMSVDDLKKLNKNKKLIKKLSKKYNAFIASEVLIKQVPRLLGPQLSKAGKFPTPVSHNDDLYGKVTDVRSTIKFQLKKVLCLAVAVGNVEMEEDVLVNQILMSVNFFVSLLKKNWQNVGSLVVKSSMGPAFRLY

Columns and labels:
[1] = target: Rpl3-TurboID (S. cerevisiae) (UniProt P14126); assay: proximity labelling; TurboID-fused bait expressed from a centromeric CUP1-promoter plasmid in S. cerevisiae YDK11-5A; 500 μM copper sulphate and 500 μM biotin for 1 h at 30°C; biotinylated proteins purified on streptavidin agarose and identified by LC-MS/MS; enrichment against the GFP-TurboID and NLS-GFP-TurboID type controls
[2] = target: TurboID-Rpl1b (S. cerevisiae) (UniProt P0CX44); assay: as above

binding [1] | binding [2] | Binder
binds | – | Spb4 (endogenous) (protein, UniProt P25808 1-606) MSKSLEWDNLGFSLLPWIRTGLDVMGFETMTPVQASTIPMLAGNKDVVVDSVTGSGKTAAFVIPVLEKVVKEEANTSKFKKAHFHSLIIAPTRELSRQIESVVLSFLEHYPSDLFPIKCQLLVGTNEATVRDDVSNFLRNRPQILIGTPGRVLDFLQMPAVKTSACSMVVMDEADRLLDMSFIKDTEKILRLLPKQRRTGLFSATMRSAGSDIFKTGLRNPVRITVNSKNQAPSSLKLNYCVVNPAEKLQLLVSILNNYKFKKCIVYFPTCVSVSYFYSFIQYLGKRNILVNEVEIFSLHGKLQTSARTKTLTAFTDSLSNSVLFTTDVAARGIDIPDVDLVIQLDPPTNTDMFMHRCGRTGRANRVGKAITFLNEGREEDFIPFMQVKNVELEELDLEVKGITTNFYEDFRNWILEDRDRFDKGVKAYVAFIKYYSNHSATSIFRLQSLDYVGIAKLYGLFRLPRMPEITKYLATEKQEGIFPGNWLVDPPVNMDEYKYKDKKREKERQETLKNISLINDKKKLKSELKKKNLAWSDKTLTKERKLERKEKMSLKRKAIEEELKAEELDENAEEERIKEDWKEIVLQNKRKKVSSKAIQGNFDDL
binds | – | Rrp15 (endogenous) (protein, UniProt Q06511 1-250) MGSKHRVDTKDKKRTRKNAEFGREKRNSGNQELSNEPEKDTIMEGDEAEEDEQNSSSDESSKIIDNEQSDAEEDDDEEEEDDDFPRKKKSKNSKHDDGSTGFSAAVNAILSSHLKAYDRKDPIMARNKKVLKQSESEKLEYKAKKALLAEKKKLLGKARKTDIIPIASGEDRSENIRKVLEKETALRKIAQKGAVKLFNAILATQVKTEKEVSENLSEIKNKEEKKELITEVSKEKFLDLVKAAAGSDNE
binds | – | Reh1 (endogenous) (protein, UniProt Q06709 1-432) MSSTFFTCNCCVIQFKTSDLQRYHMKTEWHRYNLKRRIANLPPIGAEQFAEKLQISEKEQAENQVDEFGFPVLKPVMNQSNALPQKQKKPIKSKRGRKVGTNLLKRKDRDIAKEKQNRSVSPSGSISSQLSNLTVGTENTNTDYGEDTVSEYGFTSDSNYEYATSDEELDIADKPSDKENEKITITECIYCGKDNKEVERNVKHMFSEHGLFIPERSYLIDLNGLLEFLIKMIVIDHNCLCCNFHGSGLESIRAHMASKRHCRLPYETKEERQLFAPFYDFTYDDHSISKNLQNDRAITSKLSSVYGAKNDEEDGEVDITLVSSENDINANYTTVSIDESGLELTLPTGARLGHRAGQRYYRQNLPSQPNPNESRRTITAADRRMVSGVTEKQYKKGMKKMQQLEKNAINTQIRREIKRVNFQTHYRDELLQ
binds | – | Dbp9 (endogenous) (protein, UniProt Q06218 1-594) MSYEKKSVEGAYIDDSTTFEAFHLDSRLLQAIKNIGFQYPTLIQSHAIPLALQQKRDIIAKAATGSGKTLAYLIPVIETILEYKKTIDNGEENGTLGIILVPTRELAQQVYNVLEKLVLYCSKDIRTLNISSDMSDSVLSTLLMDQPEIIVGTPGKLLDLLQTKINSISLNELKFLVVDEVDLVLTFGYQDDLNKIGEYLPLKKNLQTFLMSATLNDDIQALKQKFCRSPAILKFNDEEINKNQNKLLQYYVKVSEFDKFLLCYVIFKLNLIKGKTLIFVNNIDRGYRLKLVMEQFGIKSCILNSELPVNSRQHIVDQFNKNVYQLLIATDDTEYIKEEDDEIEEGHNTENQEEKSLEGEPENDKKPSKKKKVQVKKDKEYGVSRGVDFKNVACVLNFDLPTTAKSYVHRVGRTARGGKTGTAISFVVPLKEFGKHKPSMLQTAKKDERILSRIIKQQSKLGLELQPYKFDQKQVEAFRYRMEDGFRAVTQVAIREARVKELKQELLASEKLKRHFEENPKELQSLRHDKELHPARVQQHLKRVPDYLLPESARGNGTKVKFVPFHNAKKRHSHKKGRVSKPKNGKVDPLKNFK
– | binds | Sda1 (endogenous) (protein, UniProt P53313 1-767) MGRRSRAAMLPTNIILLQNLVKRDPESYQEEFLQQYAHYESLRDIFMLNGLAGGDSAAATNGLDVGNGSSTMAGTNGTTMSTSTSQLIELVGFVSQVCSCFPRETANFPSELKQLLLEHHKSLPFELKEKILSCLTMLRNKDVITAEELIQSLFPLLVAYSSHGNSLGVNSHAKELRKIIYTNLISLLKSCNTNGKNQKLNKSTQAVCFNLLDQPDSQGIWATKLTRELWRRGIWDDSRTVEIMTQAALHQDVKIVMSGVMFFLDADREREENFEENSEDEDGFDLDALRHKMQVNKKTGRRGKKLENAIKTVKKKKKNGPGAPQGYLNFSAIHLLRDPQGFAEKLFKEHLSGKTKNKFDMEQKISLMQLLSRLIGTHKLIVLGIYTFFLKYLTPKQRDVTRIMSACAQACHDLVPPEVINVMVRKIADEFVSDGVANEVAAAGINTIREICSRAPLAIDEILLQDLVEYKGSKAKGVNMAAKSLIALYRDVAPEMLKKKDRGKNAAMEVQEAKKGGKDSKRPQFGADNSVQGIAGIELLAKWKKEHGEESENEDADANWEVDVDSEEDDVDGEWVTMDSDKEYDVDMEDSDDEKDNAKGKESDSDLELSDDDDEKEVKDEQEDADIDPEAAFREIASTRILTPADFAKLQELRNEESVAKIMGIHKQDKREELVDASTLTGPIKYKQSREERLQKVLEGREGRDKFGSRRGKRDNMRSTTNREKERRKNFVMSIHKRSVRGKQKMSLRDKQKVLRAHITKQKKKGY
– | binds | Bcl1 (endogenous) (protein, UniProt P53962 1-389) MASYSLVESNSFGSENWCLKLQPSYKHGLLTGLSNGEIRLLDWSTGKSVQKIKASETAINDMKVIGSDFSAGHLVSSASIDAVKVFDIRTNDRIAQIQNEANSPFISLDSRHGLLACGTELQGIDAAVYIYDIRKWDTPLRSLIDSHHDDVTCIKFHPSDVNILLSGSTDGYTNIYDLKQDEEEDALHQVINYASIHSCGWLSPKRIFTLSHMETFAIHELNDKSDELKEPQPLDFGDVREIWNCDYVVDIYPGLIATGKTQENCGELCLLPFKDEKVDTENGIVIPHAHGDEVVRDIFIPAQHSNMLYSCGEDGCVKIWENKQGPLDIPENFWDYSKKMNVLGDDDREGSINLDEPLIIQKESVSTRPRKEKHKKAKKHSMKSRFKPY
binds | – | Rei1 (endogenous) (protein, UniProt P38344 1-393) MSSSGVYTCNSCVLTFDSSDEQRAHMKSDWHRYNLKRRVAQLPPISFETFDSKVSAAAASTSKSAEKEKPVTKKELKRREKQALLEKKKKLLEIARANMLENMQKSQEGNTPDLSKLSLQENEENKEKEEPKKEEPEQLTEEEMAERVMQEKLRNRVDIPLEQCLFCEHNKHFKDVEENLEHMFRTHGFYIPEQKYLVDKIGLVKYMSEKIGLGNICIVCNYQGRTLTAVRQHMLAKRHCKIPYESEDERLEISEFYDFTSSYANFNSNTTPDNEDDWEDVGSDEAGSDDEDLPQEYLYNDGIELHLPTGIKVGHRSLQRYYKQDLKPEVILTEGQGTLVAAETRSFLPAFDKKGVQTQQRVWQTERFDKKRLDKRSAKFVNNQPHYRDQLLQ
